Experimental data published in paper PMC9953885 (Biosensors, 2023).
Where a name gives a salt, the structure may show the parent alone.

Target: T1, human pancreatic lipase (hPL) (Homo sapiens, UniProt P16233)
T1 construct: gene PNLIP
T1 sequence (P16233 17-465): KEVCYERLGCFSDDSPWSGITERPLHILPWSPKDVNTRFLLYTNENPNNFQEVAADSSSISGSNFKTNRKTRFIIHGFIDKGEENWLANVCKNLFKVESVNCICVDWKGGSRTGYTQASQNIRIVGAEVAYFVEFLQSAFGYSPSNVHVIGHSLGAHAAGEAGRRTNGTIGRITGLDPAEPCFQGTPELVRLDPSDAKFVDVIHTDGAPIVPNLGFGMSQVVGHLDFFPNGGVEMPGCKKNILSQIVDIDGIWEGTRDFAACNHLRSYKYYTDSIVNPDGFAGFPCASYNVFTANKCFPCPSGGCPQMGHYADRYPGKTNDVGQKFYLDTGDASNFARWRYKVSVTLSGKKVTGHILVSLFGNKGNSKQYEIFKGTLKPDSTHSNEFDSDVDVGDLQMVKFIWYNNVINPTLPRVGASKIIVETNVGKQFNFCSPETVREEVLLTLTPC
Conditions: 10 µM; inhibitor
Procedure: First, we evaluated the inhibitory effect of 94 natural products derived from herbs and 94 drugs on hPL. In our high-throughput screening system, 1 ug/mL hPL was used, and the final concentration of the 94 natural products derived from herbs and 94 drugs used was 10 μM. Other conditions were the same as in the selectivity experiments. […] RLE was incubated with hPL and various enzymes, such as hCES1A, hCES2A, CA, AchE, BchE, 5-HKE, lysozyme, trypsin, thrombin, α-CT, FAP, PREP, pepsin, α-amylase, plasmin, notum and hSA, in a 100 µL incubation mixture consisting of Tris-HCl (pH = 7.4, 25 mM), NaCl (150 mM), CaCl2 (1 mM) and porcine bile salt (0.1 mg/mL) at a concentration of 1.5 µg/mL. The reaction was initiated by adding RLE to the preincubated enzyme mixture at 37 °C, and metabolite formation was determined by measuring the fluorescence intensity of resorufin at 590 nm. In addition, several amino acids (IIe, His, Trp, Val, Leu, Tyr, Ala, Thr, Pro, Asp, Lys, Met, Cys, Ser, Phe, Gly, Glu and Gln), ions (Ni^2+, Ca^2+, Na^+, K^+, Cu^2+, Zn^2+, Mg^2+, NH4^+, Cu^+, Fe^2+ and CN^-) and GSH were measured. The concentration of these interfering factors was 5 μM. […] In this case, a visual high-throughput assay was established to screen hPL inhibitors, using RLE as a fluorogenic substrate in a 96-well microplate.

COc1cc2c(cc1OC)C(=O)C(CC1CCN(Cc3ccccc3)CC1)C2 (stereo not shown) [Donepezil Hydrochloride]
% of control remaining: 100.82%
